This assay deals with Tom22 with a hexahistidine tag at the C-terminus (Neurospora crassa) (UniProt Q07335). As to the kind of experiment: co-purification.

Sequences of proteins named here, by UniProt entry; tags and fusion partners are left off.
UniProt Q07335: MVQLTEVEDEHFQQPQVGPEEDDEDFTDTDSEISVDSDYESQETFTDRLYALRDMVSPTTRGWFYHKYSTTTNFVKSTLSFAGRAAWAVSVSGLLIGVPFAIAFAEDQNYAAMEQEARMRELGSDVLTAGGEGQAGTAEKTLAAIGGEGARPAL

No constants are given. Whether binding was seen depends on the method and setting. Some results given as binding are weak or reduced against the parent protein; the word gives no strength.

B1: Tom6 (protein, UniProt Q1K6I2 1-60)
chain: MPSAKYIERPGGSRKSKGFIRSTYDSLTSSENASVVRSIAFFGAAVAFLSSSWGEMLVVQ
Consider B1, for which the binding entry is recorded as “binds”.

These data come from paper doi:10.1101/2021.09.28.462098.
